“And” between values parts separate entries of the source, which are not always exact repeats. Identical values can stand only once. Some of the results follow. Most values come without repeats; read them as rough.
test system: Neuro-2a; experiment: neurite formation score, plate-normalized to DMSO control mean 5.04 (score (0-8 scale)); higher = more or longer neurites; settings: 10 µM

SMILES	neurite formation score
O=C1NC(=O)/C(=C\c2ccc3nccnc3c2)S1	4.76
COc1ccc(S(=O)(=O)N(C(C)=O)c2ccccc2/C=C/c2cc[n+]([O-])cc2)cc1	0.853
Nc1cccc(S(=O)(=O)N2CCCN(S(=O)(=O)c3ccc4c(c3)OCCO4)CC2)c1	3.76
Nc1nc(N)c2nc(-c3cccc(O)c3)c(-c3cccc(O)c3)nc2n1	3.88
CC(=O)Nc1cccc(-n2c(=O)n(C3CC3)c(=O)c3c(Nc4ccc(I)cc4F)n(C)c(=O)c(C)c32)c1	2.21
CN1CCN(c2nc(C3=C(c4c[nH]c5ccccc45)C(=O)NC3=O)c3ccccc3n2)CC1 [Sotrastaurin (AEB071)]	5.43
CN(C[C@@H]1COCCO1)S(=O)(=O)Nc1ccc2ccc3ncc(-c4cnn(C)c4)cc3c(=O)c2c1	3.76
CNC(=O)c1cccc(-c2ccc3c(N4CCOC[C@@H]4C)nc(N4CCOC[C@@H]4C)nc3n2)c1	4.43
CCCCCCCCCCCCc1ccc(S(=O)(=O)Nc2nncs2)cc1	1.52
C[C@@H]1CN(CC(=O)Nc2ccc3c(c2)Cc2cccc(-c4cc(=O)cc(N5CCOCC5)o4)c2S3)C[C@H](C)O1	1.52
c1nc2c(NC3CCCCC3)nc(Nc3ccc(N4CCOCC4)cc3)nc2[nH]1 [Reversine]	0.41
CCNC(=O)Nc1ccc(-c2nc3c(c(N4CCOC[C@@H]4C)n2)CCN(C2COC2)C3)cc1	4.21
CCOc1ccc(Nc2ccc(/C(=C3C=C/C(=[N+](/CC)Cc4cccc(S(=O)(=O)[O-])c4)C=C/3C)c3ccc(N(CC)Cc4cccc(S(=O)(=O)O)c4)cc3C)cc2)cc1 [Brilliant Blue G]	2.86
COc1ccc(-c2cc3c(C)nc(N)nc3n([C@H]3CC[C@H](OCCO)CC3)c2=O)cn1	2.43
COc1ccc(-c2ccc3ncc4c(c3c2)n(-c2ccc(N3CCNCC3)c(C(F)(F)F)c2)c(=O)n4C)cn1	1.43
O=C(NCCCNc1nc(Nc2cccc(NC(=O)N3CCCC3)c2)ncc1I)c1cccs1	6.19
C=CC(=O)Nc1cc(Nc2nccc(-c3cn(C)c4ccccc34)n2)c(OC)cc1N(C)CCN(C)C	0.0903
Cc1ccc(C(=O)Nc2ccc(CN3CCN(C)CC3)c(C(F)(F)F)c2)cc1C#Cc1cnc2[nH]ncc2c1	1.76
CNC(=O)c1cc(Oc2ccc(NC(=O)Nc3ccc(Cl)c(C(F)(F)F)c3)cc2)ccn1 [Sorafenib]	2.54
Cc1ccccc1CN1C2=NCCN2C(=O)C2=C1CCN(Cc1ccccc1)C2	4.09

SMILES	neurite formation score
C1=N/C2=N/c3ccc(OCCN4CCCC4)c(c3)COC/C=C/COCc3cccc(c3)C(=C1)N2 [Pacritinib]	0.76
CCN(CC)CCCC(C)Nc1ccnc2cc(Cl)ccc12 (centres undefined) [Chloroquine diphosphate]	5.09
O=c1c(O)c(-c2ccc(O)c(O)c2)oc2cc(O)cc(O)c12 [Quercetin]	5.19
Clc1ccc(Nc2nnc(Cc3ccncc3)c3ccccc23)cc1 [Vatalanib (PTK787) 2HCl]	4.54
COc1cc(Nc2ncc(F)c(Nc3ccc4c(n3)NC(=O)C(C)(C)O4)n2)cc(OC)c1OC [R406 (free base)]	3.19
O=C(NC1CCNCC1)c1n[nH]cc1NC(=O)c1c(Cl)cccc1Cl	4.85
Cc1cc(C(=O)NOCCO)c(Nc2ccc(I)cc2F)n(C)c1=O	4.76
O=c1sn(-c2cccc3ccccc23)c(=O)n1Cc1ccccc1 [Tideglusib]	4.86
CN(c1ncccc1CNc1nc(Nc2ccc3c(c2)CC(=O)N3)ncc1C(F)(F)F)S(C)(=O)=O	1.19 and 0.853
CCN(CC)CCCC(C)Nc1nc(C)cc(Nc2ccc3nc(C)cc(N)c3c2)n1 (centres undefined)	6.21
CNc1nc(Nc2ccc(C(=O)N3CCOCC3)cc2OC)ncc1Cl	4.09
C[C@@H]1COCCN1c1cc(C2(S(C)(=O)=O)CC2)nc(-c2cccc3[nH]ccc23)n1	4.21
Cc1cnc(-c2cnc(NCCNc3ccc(C#N)cn3)nc2-c2ccc(Cl)cc2Cl)[nH]1	3.43 and 4.21
O=C(Nc1cc(C(F)(F)F)cc(C(F)(F)F)c1)c1cc(Cl)ccc1O	0.424
CC(C)(C)NS(=O)(=O)c1cncc(-c2cc(F)c3nc(N)nn3c2)c1	5.08
CS(=O)(=O)c1cccc(CNc2nc(Nc3ccc4c(c3)CCC(=O)N4)ncc2C(F)(F)F)c1	2.76
Cc1cc2c(F)c(Oc3ncnn4cc(OC[C@@H](C)OC(=O)[C@H](C)N)c(C)c34)ccc2[nH]1	4.21
COc1cc(C(=O)NC2CCN(C)CC2)ccc1Nc1ncc2c(n1)N(C1CCCC1)CC(F)(F)C(=O)N2C	3.76
O=C1NCCc2[nH]c(-c3ccncc3)cc21	5.41

— the supplement of paper PMC8047044
